In PubChem BioAssay AID504444 (National Center for Advancing Translational Sciences (NCATS), 2011):
Where “and” joins values, the source holds several entries; their conditions need not be identical. Identical values can stand only once. Among all 360,000 compounds or so, about 7,500 (2.1%) were called active. Inconclusive means that the source gave no clear call. Such entries were picked first, then a sample of the others. Calls follow the shape of the dose curve; as a rule, active = well fitted inhibition curve with a large enough effect; inconclusive = small, poorly fitted or top-dose-only effect, or effect the other way; inactive = flat fitted curve, though single readings scatter. A potency beside an inconclusive call is a rough fit, not a confirmed value.

assay: Nrf2 qHTS screen for inhibitors; conditions: A549 ARE-Fluc reporter, luciferase luminescence, 18-24 h; series mostly up to 46 µM; also: nearly all actives have a fitted effect of over 60% in size
In short: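 In this cell-based qHTS, ARE-driven firefly luciferase in A549 cells reports Nrf2 activity; the luminescent signal after BugLite lysis is the measured value, with a prior CellTiter-Fluor read for cell health.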
Potency is read from the fitted curve at half-maximal effect.

| Compound | Potency |
| --- | --- |
| COc1ccc(C(=O)NNC(=S)NC(=O)c2cc(-c3ccccc3)nc3ccccc23)cc1 | active: 18.4 µM |
| Cc1cn(C2OC(COC(=O)c3ccccc3)C(O)C2O)c(=O)[nH]c1=O (stereo unspecified) | inactive |
| O=C(c1sc2ccccc2c1Cl)N(Cc1ccccc1)C1CCS(=O)(=O)C1 (stereo unspecified) | inconclusive: 14.6 µM [falling, partial curve, poor fit] |
| O=C(C1CC1)N1CCN(c2ccc(O)cc2)CC1 | inconclusive: 23.1 µM [falling, partial curve, poor fit] |
| CCN(CC)c1ccc2nc3c4ccccc4c(=O)cc-3oc2c1 | inconclusive: 2.91 µM [activator, full curve] |
| COc1ccc(N2CCN(Cc3cc4c(cc3O)CCC4)CC2)cc1 | inconclusive: 29.1 µM [falling, single point] |
| COc1ccc2c(CC(=O)Nc3ccc(OC)c(NS(=O)(=O)c4ccc(F)cc4)c3)coc2c1 | inconclusive: 29.1 µM [falling, single point] |
| COC(=O)c1c(S(C)(=O)=O)nc(-c2ccccc2)[nH]c1=O | inactive |
| O=C(O)CSCC(=O)NC1CCCc2ccccc21 (stereo unspecified) | inconclusive: 32.6 µM [falling, single point] |
| Fc1ccc(NC(=S)Nc2ccccc2OC(F)F)cc1Cl | inconclusive: 18.4 µM [falling, partial curve, poor fit] |
| Nc1c(C(=O)Nc2ccccc2)sc2nc(-c3ccco3)ccc12 | inconclusive: 29.1 µM [falling, single point] |
| Cc1[nH]c2ccccc2c1C(=O)COC(=O)Cn1c(C)nc2ccccc21 | inconclusive: 4.61 µM [falling, partial curve, poor fit] |
| COc1cccc(/C=N/NC(=O)c2cc(-c3ccccn3)nc3ccccc23)c1O | inactive |
| CN(CCc1ccccn1)c1ccccc1 | inconclusive: 5.8 µM [activator, partial curve] |
| COc1ccc(CC(NC(C)=O)C(=O)NC2CCN(S(=O)(=O)c3ccc(NC(C)=O)cc3)CC2)cc1OC (stereo unspecified) | inconclusive: 0.92 µM [falling, full curve, poor fit] |
| COc1ccc(N2CCN(Cc3nc(N)nc(N4CCCc5ccccc54)n3)CC2)cc1 | inconclusive: 0.092 µM [falling, full curve, poor fit] |
| Nc1ccc2c(S(=O)(=O)O)cccc2c1S(=O)(=O)O | inconclusive: 29.1 µM [activator, single point] |
| COc1ccc(/C=N/N=C2/SCC(=O)N2Cc2ccccc2)cc1 | inconclusive: 16.4 µM [activator, partial curve] |
| CC1CCN(S(=O)(=O)c2cc(Br)cc(C(=O)NC3=NCCS3)c2)CC1 | inconclusive: 13 µM [falling, partial curve, poor fit] |
| O=S1(=O)N=C(Oc2ccccc2Br)c2ccccc21 | inactive |
| Cc1ccccc1CSCCNC(=O)CN(c1ccccc1)S(=O)(=O)N(C)C | inactive |
| COc1ccccc1CNC(=O)c1cc2ccc3ccc(C)[nH]c3c2n1 | inconclusive: 14.6 µM [falling, single point] |

| Compound | Potency |
| --- | --- |
| Cc1ccc(C(=O)NC2CCN(S(=O)(=O)c3ccc(F)cc3)CC2)cc1 | inconclusive: 0.0184 µM [falling, full curve, poor fit] |
| COC(=O)C1=CN(Cc2cccs2)C=C(C(=O)OC)C1c1cccc(Cl)c1 | inconclusive: 16.4 µM [falling, single point] |
| CCC1CCCCN1c1nc(-c2ccncc2)nc2ccccc12 (stereo unspecified) | inconclusive: 16.4 µM [falling, partial curve, poor fit] |
| COc1ccc(C(NC(=O)c2cccnc2)c2cc(Cl)c3cccnc3c2O)cc1OC (stereo unspecified) | inconclusive: 16.4 µM [falling, single point] |
| CC1CCCC(C)N1/N=C/c1ccc(O)cc1 (stereo unspecified) | inactive |
| CCN1CCc2c(sc(-n3cccc3)c2C(C)NC(=O)Nc2ccccc2C)C1 (stereo unspecified) | inconclusive: 16.4 µM [activator, partial curve, poor fit] |
| Cc1cccc(CC(=O)Nc2cccc(-c3nc4cccnc4s3)c2)c1 | inconclusive: 14.6 µM [activator, partial curve, poor fit] |
| O=C(CSc1nnc(Cc2ccccc2)o1)NCc1ccc2c(c1)OCO2 | inconclusive: 18.4 µM [falling, partial curve, poor fit] |
| Cc1ccc(NC(=O)C2CCC2)cc1S(=O)(=O)N1CCCCCC1 | inconclusive: 20.6 µM [falling, single point] |
| COc1cc(Cl)ccc1OCc1cc(C(=O)N(C)C2CCOC2)no1 (stereo unspecified) | inconclusive: 29.1 µM [activator, single point] |
| Cc1ccc(C)c(N2CCN(S(=O)(=O)c3csc(C(N)=O)c3)CC2)c1 | inconclusive: 29.1 µM [falling, single point] and inconclusive: 18.4 µM [falling, single point] |
| Cc1ccc2oc(-c3ccc(C)c(NC(=S)NC(=O)c4cccs4)c3)nc2c1 | inconclusive: 0.461 µM [activator, full curve, poor fit] |
| CCn1nnc2cc(C(=O)Nc3cccc(C)c3C)ccc21 | inactive |
| O=C(NC1(C(F)(F)F)C(=O)Nc2c1c(=O)[nH]c(=O)n2-c1ccccc1)c1ccncc1 (stereo unspecified) | inactive |
| COc1ccc(C(=O)N=c2sc3ccccc3n2C)cc1OC | inconclusive: 5.8 µM [activator, full curve] |
| COc1ccc(NC(=O)C2CCC(CNS(=O)(=O)c3cccs3)CC2)cc1OC (stereo unspecified) | inactive |
| CCCCC(=O)Nc1cccc(NC(=O)c2cccc(Br)c2)c1 | inconclusive: 14.6 µM [falling, partial curve] |
| CC1CCCN(Cc2c(O)ccc3c4c(c(=O)oc23)CCCC4)C1 (stereo unspecified) | inactive |
| C(=N\Nc1ccccn1)/c1ccc(N2CCOCC2)cc1 | inconclusive: 3.26 µM [activator, full curve, poor fit] |
| CC(C)(C)C(=O)Nc1nc2ccc(S(C)(=O)=O)cc2s1 | inconclusive: 9.2 µM [activator, partial curve] |
| Cc1ccc(NC(=O)CN2C(=O)NC(C)(c3ccc(Cl)cc3)C2=O)c(Br)c1 (stereo unspecified) | inconclusive: 29.1 µM [activator, single point] |
| Cc1cc(C)c2nc(NC(=O)C3CC(=O)N(Cc4ccco4)C3)sc2c1 (stereo unspecified) | inconclusive: 29.1 µM [falling, single point] |

| Compound | Potency |
| --- | --- |
| Cc1cc(NC2=CC(=O)C(=O)c3ccccc32)no1 | inconclusive: 20.6 µM [falling, single point] |
| O=C1CC(NS(=O)(=O)c2ccc([N+](=O)[O-])cc2)CN1c1cccc(F)c1 (stereo unspecified) | inactive |
| Clc1ccccc1-c1nnc(-c2ccccc2CNc2ccccc2)o1 | inconclusive: 2.59 µM [activator, full curve, poor fit] |
| Nc1c(N(Cc2ccccc2)C(=O)COc2ccc([N+](=O)[O-])cc2)c(=O)[nH]c(=O)n1Cc1ccccc1 | inconclusive: 8.2 µM [activator, partial curve] |
| O=C(/C=C/c1ccco1)Nc1cccnc1 | inconclusive: 20.6 µM [activator, partial curve, poor fit] |
| Cc1cccc(S(=O)(=O)Nc2ccc(-c3nc4ccc(C)cc4s3)cc2)c1 | inconclusive: 10.3 µM [activator, partial curve, poor fit] |
| O=C(Nc1ccc2c(c1)OCCO2)c1ccc(Cl)c(Cl)c1 | inconclusive: 2.06 µM [activator, full curve] |
| Cc1cc(OCc2cc(C(=O)N3CCCCCC3)no2)cc(C)c1Cl | inconclusive: 3.26 µM [activator, partial curve] |
| O=C(COc1cccc2ccccc12)N1c2ccccc2CCc2ccccc21 | inconclusive: 20.6 µM [falling, single point] |
| O=C(Cc1ccccc1F)Nc1ccc(S(=O)(=O)Nc2ncccn2)cc1 | inconclusive: 2.06 µM [falling, partial curve, poor fit] |
| Cc1nn(C)cc1S(=O)(=O)Nc1ccc2c(c1)OCCO2 | inconclusive: 11.6 µM [activator, partial curve] |
| COc1ccccc1CNc1ncnc2cc(Cl)ccc12 | inconclusive: 4.61 µM [falling, full curve] |
| O=C(COc1ccccc1[N+](=O)[O-])Nc1ccc(N2CCN(C(=O)c3cccs3)CC2)cc1 | active: 5.8 µM |
| COc1cc2[nH]c(=S)n(C3CCCC3)c(=O)c2cc1OC | inconclusive: 8.2 µM [falling, partial curve, poor fit] |
| Cc1occc1C(=O)Nc1cccc2ccccc12 | inconclusive: 3.66 µM [activator, partial curve] |
| Cc1ccc(NC(=O)N(CCCN2CCOCC2)Cc2cc3cc4c(cc3[nH]c2=O)OCO4)cc1 | inactive |
| O=C(COc1ccc2c(-c3ccccc3)cc(=O)oc2c1)NCCCN1CCOCC1 | inactive |
| CC(C)(C)c1ccc(Cn2nnc3c(=O)[nH]c(C4CCCN(C(=O)Cc5cccs5)C4)nc32)cc1 (stereo unspecified) | inconclusive: 23.1 µM [falling, single point] |
| CN=C1S/C(=C\c2ccc(N3CCOCC3)c(F)c2)C(=O)N1C | inactive |
| CCOc1ccc(N2C(=O)CC(N(O)c3ccccc3)C2=O)cc1 (stereo unspecified) | inactive |
| CC(C)CCNC(=O)C(CC(C)C)N(Cc1ccc2c(c1)OCO2)C(=O)c1snc(C(N)=O)c1N (stereo unspecified) | inconclusive: 18.4 µM [falling, single point] |
| CCSc1ccc(/C(N)=N/OC(=O)c2cccs2)cn1 | inconclusive: 16.4 µM [activator, partial curve] |
